At least one peptide structure holds a part that was inferred or is arguable (an end, a ring closure or a residue). Where no end group is shown, it is not given here.
Tested on: cell
Test: Entry of peptide into cytoplasm and nucleus of a cell
Assay type: cell-based

RAVASTEVKQKLQEFLLSKGSGSYGRKKRRQRRRGC-NH2 [SEQ ID NO:23]
distribution into the nucleus of a cell: can distribute into the nucleus of a cell | entry into the cytoplasm of a cell: can efficiently enter the cytoplasm of a cell

Reference: patent publication US20060160201A1, “Three-dimensional structures of HDAC9 and Cabin1 and compound structures and methods related thereto” (priority 2003, published 2006)
